These are yes or no findings as the source states them, for the method shown. Some entries that bind do so weakly or less than the wild type.
Molecular target: T1, Growth-and-Differentiation Factor-3 (GDF3) (UniProt Q9NR23)
T1 sequence (looked up): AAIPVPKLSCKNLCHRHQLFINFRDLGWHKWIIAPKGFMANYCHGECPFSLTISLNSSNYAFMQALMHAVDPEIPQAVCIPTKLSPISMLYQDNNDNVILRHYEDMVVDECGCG
Assay: Biacore (data not shown)

B1: ActRIIB(20-134)-hFc (Fc fusion, not shown: a dimerising Fc or GST)
chain: GRGEAETRECIYYNANWELERTNQSGLERCEGEQDKRLHCYASWRNSSGTIELVKKGCWLDDFNCYDRQECVATEENPQVYFCCCEGNFCNERFTHLPEAGGPEVTYEPPPTAPT
notes: The residue range comes from the construct name; also called full-length counterpart ActRIIB(20-134)-hFc
- binding: binds
